Measurements: patent US20100152235A1, “OXADIAZOLE DERIVATIVES ACTIVE ON SPHINGOSINE-1-PHOSPHATE (S1P)” (priority 2007, published 2010)
Structures can show the parent of a compound that is named as a salt. Some results were stated once for a whole list of compounds, not compound by compound.

Amino acid sequences for entries named in this document (tags omitted). A change or cut given only in a name is not applied to a line headed by its entry.
UniProt Q99500: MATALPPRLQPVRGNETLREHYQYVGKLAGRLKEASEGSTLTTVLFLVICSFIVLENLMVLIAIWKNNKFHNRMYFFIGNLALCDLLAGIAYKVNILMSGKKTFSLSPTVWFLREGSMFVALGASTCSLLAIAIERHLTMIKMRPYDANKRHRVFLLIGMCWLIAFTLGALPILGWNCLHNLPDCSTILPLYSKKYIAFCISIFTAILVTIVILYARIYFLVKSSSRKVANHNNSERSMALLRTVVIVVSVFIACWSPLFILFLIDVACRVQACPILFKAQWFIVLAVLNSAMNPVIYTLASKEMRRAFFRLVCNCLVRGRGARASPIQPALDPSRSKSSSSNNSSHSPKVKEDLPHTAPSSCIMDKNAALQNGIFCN

These molecules were tested against T1, human S1P3 receptor (Homo sapiens, UniProt Q99500) (assay: S1P3 GTPγS assay). Details: [35S]-GTPγS SPA, membranes of RBL cells expressing human S1P3, agonist.
T1 construct: expressed in transfected cells; membranes
Format: biochemical

pEC50, < 5:
CC(C)Oc1ccc(-c2nc(-c3cccc4c3CCNC4)no2)cc1Cl.Cl [Example 1, 5-(5-{3-chloro-4-[(1-methylethyl)oxy]phenyl}-1,2,4-oxadiazol-3-yl)-1,2,3,4-tetrahydroisoquinoline hydrochloride]
CC(C)Oc1ccc(-c2nc(-c3cccc4c3CCN(CC(=O)O)C4)no2)cc1C#N.Cl [Example 4, [5-(5-{3-cyano-4-[(1-methylethyl)oxy]phenyl}-1,2,4-oxadiazol-3-yl)-3,4-dihydro-2(1H)-isoquinolinyl]acetic acid hydrochloride]
Cc1c(-c2noc(-c3ccc(OC(C)C)c(Cl)c3)n2)ccc2c1CCN(CCC(=O)O)C2 [Example 8, 3-[6-(5-{3-Chloro-4-[(1-methylethyl)oxy]phenyl}-1,2,4-oxadiazol-3-yl)-5-methyl-3,4-dihydro-2(1H)-isoquinolinyl]propanoic acid]
Cc1c(-c2noc(-c3ccc(OC(C)C)c(Cl)c3)n2)ccc2c1CCN(CC(=O)O)C2 [Example 9, [6-(5-{3-Chloro-4-[(1-methylethyl)oxy]phenyl}-1,2,4-oxadiazol-3-yl)-5-methyl-3,4-dihydro-2(1H)-isoquinolinyl]acetic acid]
Cc1c(-c2noc(-c3ccc(OC(C)C)c(Cl)c3)n2)ccc2c1CCNC2 [Example 10, 6-(5-{3-Chloro-4-[(1-methylethyl)oxy]phenyl}-1,2,4-oxadiazol-3-yl)-5-methyl-1,2,3,4-tetrahydroisoquinoline trifluoroacetate]
Cc1c(-c2noc(-c3ccc(OC(C)C)c(C#N)c3)n2)ccc2c1CCN(CC(=O)O)C2 [Example 12, [6-(5-{3-Cyano-4-[(1-methylethyl)oxy]phenyl}-1,2,4-oxadiazol-3-yl)-5-methyl-3,4-dihydro-2(1H)-isoquinolinyl]acetic acid]
